Data source: PubChem BioAssay AID1259254 (NCATS, 2017)

- Test: 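Gene knock-downs that lead to re-replication, shown by excess G2 DNA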 (primary screen)
- Cells: human HCT116 colorectal cancer cells
- Knock-down reagent: single siRNA against human genes
- Duration: 3 days
- Measurement: 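Nuclei stained with Hoechst and imaged; cell-cycle phase assigned by DNA content; G2 share scaled per plate, non-targeting siRNA 0%, GMNN siRNA 100%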
- Scale: G2 robust z-score and G2 cells, % of GMNN control: higher = more G2 cells, more excess DNA replication
- Active means: 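Active siRNAs have a G2 robust z of 5 or more median absolute deviations over the median, which in these data means about 38% or higher of GMNN control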
Shown is a random part of about 59,000 reagents tested. About 1,550 of all reagents (2.6%) count as active. 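G2 share is only a proxy for re-replication; each gene was hit by three separate siRNAs, and active genes were retested.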 The numbers tell different reagents against one gene apart. Further read-outs or replicates are left out here. The record does not give: the amount of reagent.

gene	reagent no.	G2 robust z-score	G2 cells, % of GMNN control	Outcome
PDE1A	1	0.42	5.92	inactive
PDE1A	2	-1.12	-4.89	inactive
PDE1A	3	-0.433	-0.081	inactive
GLT6D1	1	-0.661	-1.69	inactive
GLT6D1	2	2.1	17.7	inactive
GLT6D1	3	-0.0691	2.48	inactive
VAMP4	1	0.0136	3.06	inactive
VAMP4	2	0.887	9.21	inactive
VAMP4	3	0.137	3.93	inactive
PPOX	1	0.984	9.89	inactive
PPOX	2	-0.371	0.354	inactive
PPOX	3	6.1	45.9	active
RXFP4	1	0.652	7.55	inactive
RXFP4	2	-0.328	0.656	inactive
RXFP4	3	-0.528	-0.746	inactive

Next part (2 carried over from the part before).
gene	reagent no.	G2 robust z-score	G2 cells, % of GMNN control	Outcome
RXFP4	2	-0.328	0.656	inactive
RXFP4	3	-0.528	-0.746	inactive
C3orf18	1	0.461	6.21	inactive
C3orf18	2	-1.21	-5.53	inactive
C3orf18	3	2.46	20.3	inactive
EPHB3	1	-0.65	-1.61	inactive
EPHB3	2	-0.886	-3.27	inactive
EPHB3	3	-0.777	-2.5	inactive
VWA3B	1	0.623	7.35	inactive
VWA3B	2	-0.392	0.209	inactive
VWA3B	3	1.01	10.1	inactive
LINC01776	1	-0.547	-0.879	inactive
LINC01776	2	0.238	4.64	inactive
LINC01776	3	-0.118	2.14	inactive
RANBP17	1	0.538	6.75	inactive
RANBP17	2	1.11	10.7	inactive
RANBP17	3	0.0257	3.15	inactive
